Data as given in PubChem BioAssay AID652016 (National Center for Advancing Translational Sciences (NCATS), 2013).
Inconclusive results, whose numbers are uncertain, are shown with a selection of clear calls. Where the call is inconclusive, the potency comes from a doubtful curve fit. Activity calls are given as the source filed them. Calls follow the shape of the dose curve; as a rule, active = well fitted inhibition curve with a large enough effect; inconclusive = small, poorly fitted or top-dose-only effect; inactive = flat fitted curve, though single readings scatter.

Sequences of proteins named here, by UniProt entry; tags and fusion partners are left off.
UniProt P08659, whole entry, looked up: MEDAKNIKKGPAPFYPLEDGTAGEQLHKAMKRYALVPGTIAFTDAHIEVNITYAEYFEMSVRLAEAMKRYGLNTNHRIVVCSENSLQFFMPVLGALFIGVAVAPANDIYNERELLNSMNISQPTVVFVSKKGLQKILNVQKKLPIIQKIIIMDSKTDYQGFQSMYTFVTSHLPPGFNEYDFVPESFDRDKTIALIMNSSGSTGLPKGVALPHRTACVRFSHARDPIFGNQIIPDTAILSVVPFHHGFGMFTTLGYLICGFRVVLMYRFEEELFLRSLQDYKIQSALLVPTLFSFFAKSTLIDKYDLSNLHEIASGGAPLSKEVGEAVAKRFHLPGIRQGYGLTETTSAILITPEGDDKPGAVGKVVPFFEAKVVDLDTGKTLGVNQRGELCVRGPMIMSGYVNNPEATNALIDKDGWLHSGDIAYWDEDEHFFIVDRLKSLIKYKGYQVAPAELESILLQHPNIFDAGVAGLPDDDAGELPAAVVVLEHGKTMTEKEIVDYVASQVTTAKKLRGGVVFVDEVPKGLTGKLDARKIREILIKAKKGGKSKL

Target: Luciferin 4-monooxygenase (Photinus pyralis) (UniProt P08659)
Experiment: qHTS Assay for Inhibitors of Firefly Luciferase from the GSK Published Protein Kinase Inhibitor Set
In short: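 Purified P. pyralis luciferase, 10nM, with 10uM D-luciferin and 10uM ATP in 50mM Tris acetate pH 7.5, 10mM Mg acetate, 0.01% Tween-20, 0.05% BSA. Titration ~60uM to 300pM; luminescence read after about 5 min.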
Potency is read from the fitted curve at half-maximal effect.

Structure (SMILES)	Potency
COc1cc(N2CCN(C(C)C)CC2)ccc1Nc1nc(Nc2ccc(F)cc2C(N)=O)c2cc[nH]c2n1	inconclusive: 25.9 µM [inhibitor, partial curve]
CC1=C(C(=O)Nc2ccc3[nH]ncc3c2)C(c2ccc3ccccc3c2)CC(=O)N1 (stereo not drawn)	inconclusive: 41.1 µM [inhibitor, single point]
COc1cccc(-n2ncc3c(NN=Cc4ccncc4)ncnc32)c1	inconclusive: 6.51 µM [inhibitor, partial curve]
Cc1ccc(NC(=O)CC2CC2)cc1-c1ccc(C(=O)NCC2CC2)cc1	inconclusive: 18.3 µM [inhibitor, partial curve]
COc1cccc(-n2ncc3c(NN=Cc4ccc(C(=O)NCCN(C)C)cc4)ncnc32)c1	inconclusive: 16.3 µM [inhibitor, partial curve]
COc1c(C(N)=O)cc(-c2ccc(Cl)cc2)cc1-c1ccc(S(N)(=O)=O)cc1	inconclusive: 29.1 µM [inhibitor, single point]
OCc1ccc(-c2nc(-c3ccc4c(c3)OCO4)c(-c3ccccn3)[nH]2)cc1	inconclusive: 18.3 µM [inhibitor, partial curve]
Fc1ccc(Nc2nccc(-c3c(-c4ccc(C(F)(F)F)cc4)nn4ncccc34)n2)cc1F	inactive
CS(=O)(=O)Nc1ccc(N=Cc2c(O)[nH]c3ccccc23)cc1	inconclusive: 16.3 µM [inhibitor, partial curve]
Cc1ccc2c(-c3ccnc(Nc4ccc5c(c4)OCCO5)n3)c(-c3ccc(C(F)(F)F)cc3)nn2n1	inactive
O=S1CCN(Cc2ccc(-c3ccc4ncnc(Nc5ccc(OCc6cccc(F)c6)c(Cl)c5)c4c3)o2)CC1	inconclusive: 18.3 µM [inhibitor, partial curve]
NC(=O)c1ccc(Oc2nccc(-c3c(-c4ccc(F)cc4)ncn3C3CCNCC3)n2)cc1	inconclusive: 29.1 µM [inhibitor, partial curve, poor fit]
N#Cc1c(NC(=O)CN2CCOCC2)sc2c1CCCC2	inactive
OCCCNc1nccc(-c2c(-c3ccc(F)cc3)nn3cc(C(F)(F)F)ccc23)n1	active: 32.6 µM
COC(=O)Nc1nc2ccc(Oc3cccc(NC(=O)Nc4cc(C(F)(F)F)ccc4F)c3)cc2[nH]1	inconclusive: 16.3 µM [inhibitor, partial curve]
CN(C)CCOc1ccc(-c2nc(-c3ccc4c(c3)CCC4=NO)c(-c3ccncc3)[nH]2)cc1	active: 14.6 µM
CCS(=O)(=O)c1ccc(OC)c(Nc2ncc(-c3cccc(OC)c3)o2)c1	inactive
CC1(C)CC(n2cnc(-c3ccc(F)cc3)c2-c2ccnc(N)n2)CC(C)(C)N1	inconclusive: 41.1 µM [inhibitor, single point]

Some of the entries above, reformatted:

| Structure (SMILES) | Potency |
| --- | --- |
| COc1cccc(-n2ncc3c(NN=Cc4ccc(C(=O)NCCN(C)C)cc4)ncnc32)c1 | inconclusive: 16.3 µM [inhibitor, partial curve] |
| CS(=O)(=O)Nc1ccc(N=Cc2c(O)[nH]c3ccccc23)cc1 | inconclusive: 16.3 µM [inhibitor, partial curve] |
